Source: PubChem BioAssay AID624297 (National Center for Advancing Translational Sciences (NCATS), 2012)
Among all 340,000 compounds or so, about 6,200 (1.8%) were called active. The shares of active, inactive and inconclusive entries below differ from those in the screen. Calls follow the shape of the dose curve; as a rule, active = well fitted activation curve with a large enough effect; inconclusive = small, poorly fitted or top-dose-only effect; inactive = no such curve, though single readings can be large or run the other way. A potency beside an inconclusive call is a rough fit, not a confirmed value.

Experiment: A quantitative high throughput screen for small molecules that induce DNA re-replication in SW480 colon adenocarcinoma cells. Also: nearly all actives have a fitted effect of over 55% in size. As to re-replication activation: % of control where 0% means no effect.
Conditions: Hoechst DNA content imaging, 48 h; re-replication activation: at 46.1 µM (top of the series)
How it was run: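 Hoechst fluorescence of nuclei (405 nm excitation, 500-530 nm emission) measured by plate-scanning imager after 48 hr compound exposure at 37 C; re-replication scored as increased number of nuclei with elevated intensity.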
Potency is read from the fitted curve at half-maximal effect.

Row | Compound | Potency | re-replication activation
1 | Cc1ccc(Cl)cc1N1CCN(S(C)(=O)=O)CC1 | inactive | –
2 | CN(C(=O)c1ccc(S(=O)(=O)N2CCOCC2)cc1)C1CCS(=O)(=O)C1 (centres undefined) | inconclusive: 16.4 µM [activator, single point] | –
3 | CCOc1cc2c3c(c1)C(C)CC(C)(C)N3C(=O)C2=O (centres undefined) | inconclusive: 29.1 µM [activator, partial curve, poor fit] | –
4 | O=C1NC2(CCCCCC2)C(=O)N1CCS(=O)(=O)Oc1ccccc1 | inconclusive: 16.4 µM [activator, partial curve, poor fit] | –
5 | O=C(NCC1COc2ccccc2O1)c1cccs1 (centres undefined) | inactive | –
6 | O=C(c1cccs1)c1ccc(-c2cccs2)s1 | inconclusive: 20.6 µM [activator, single point] | –
7 | COc1ccc(NC(=O)c2ccc(NC(=O)C3CC3)cc2)cc1 | inactive | –
8 | Cc1cc(C)c2c(N)c(C(=O)c3ccc(Cl)cc3Cl)sc2n1 | inconclusive: 29.1 µM [activator, partial curve, poor fit] | –
9 | CC1CC(C)CN(CCCNC(=O)c2ccc3c(c2)N(Cc2ccccc2)C(=O)c2ccccc2S3=O)C1 (centres undefined) | inconclusive: 23.1 µM [activator, single point] | –
10 | Cc1ccc(-c2csc(C3=C(O)CN(NC(=O)c4ccco4)C3=N)n2)cc1 | inconclusive: 9.2 µM [activator, partial curve, poor fit] | –
11 | Cc1ccc(C)c(C(=O)CC2(O)C(=O)N(C)c3ccccc32)c1 (centres undefined) | inactive | –
12 | C/C(=N\Nc1cccc(Cl)c1)C1(C)N(O)C(C)(C)C(c2ccco2)=[N+]1[O-] (centres undefined) | inactive | –
13 | CCN(CC)CCNC(=O)c1cc2c(-c3ccc(Cl)cc3)nn(C)c2s1 | inconclusive: 25.9 µM [activator, single point] | –
14 | Cc1cc2c(nc1C)CCCN2C[C@@H](C)O/N=C1/[C@H]2CCn3c(=O)n(-c4ccccc4)c(=O)n3[C@H]2[C@H](O)[C@@H]2O[C@H]12 | inconclusive: 29.1 µM [activator, single point] | –
15 | O=S(=O)(Nc1ccc2c(c1)nc1n2CCN(Cc2ccccc2)C1)c1ccc(Cl)cc1 | inconclusive: 18.4 µM [activator, single point] | –
16 | COc1ccc(NC(=O)c2cc3nc(-c4ccccc4)cc(-c4ccccc4)n3n2)c(OC)c1 | – | inactive: 4.99% [at 9.22 µM]
17 | CC1(C)CC(NC(=O)c2coc(=O)c(Br)c2)CC(C)(C)N1 | inconclusive: 18.4 µM [activator, single point] | –
18 | CCCCn1c(-c2csc(C(C)C)c2)n[nH]c1=S | inactive | –
19 | CC(C)OC(=O)c1c2c(n3ccccc13)C(=O)c1ccccc1C2=O | inconclusive: 0.0046 µM [activator, full curve, poor fit] | –

Filtered by structure: the compounds so far containing two or more sulfur atoms
Row | Compound | Potency | re-replication activation
2 | CN(C(=O)c1ccc(S(=O)(=O)N2CCOCC2)cc1)C1CCS(=O)(=O)C1 (centres undefined) | inconclusive: 16.4 µM [activator, single point] | –
6 | O=C(c1cccs1)c1ccc(-c2cccs2)s1 | inconclusive: 20.6 µM [activator, single point] | –
18 | CCCCn1c(-c2csc(C(C)C)c2)n[nH]c1=S | inactive | –
